Source: publication PMC9579051
No constants are given. Whether binding was seen depends on the method and setting. Binding seen in cells or lysates may run through a third protein. Here binding means that the protein was enriched with, or labelled near, the bait; the list need not be complete.

The chains behind the UniProt entries cited, without tags or fusion partners.
UniProt P09144: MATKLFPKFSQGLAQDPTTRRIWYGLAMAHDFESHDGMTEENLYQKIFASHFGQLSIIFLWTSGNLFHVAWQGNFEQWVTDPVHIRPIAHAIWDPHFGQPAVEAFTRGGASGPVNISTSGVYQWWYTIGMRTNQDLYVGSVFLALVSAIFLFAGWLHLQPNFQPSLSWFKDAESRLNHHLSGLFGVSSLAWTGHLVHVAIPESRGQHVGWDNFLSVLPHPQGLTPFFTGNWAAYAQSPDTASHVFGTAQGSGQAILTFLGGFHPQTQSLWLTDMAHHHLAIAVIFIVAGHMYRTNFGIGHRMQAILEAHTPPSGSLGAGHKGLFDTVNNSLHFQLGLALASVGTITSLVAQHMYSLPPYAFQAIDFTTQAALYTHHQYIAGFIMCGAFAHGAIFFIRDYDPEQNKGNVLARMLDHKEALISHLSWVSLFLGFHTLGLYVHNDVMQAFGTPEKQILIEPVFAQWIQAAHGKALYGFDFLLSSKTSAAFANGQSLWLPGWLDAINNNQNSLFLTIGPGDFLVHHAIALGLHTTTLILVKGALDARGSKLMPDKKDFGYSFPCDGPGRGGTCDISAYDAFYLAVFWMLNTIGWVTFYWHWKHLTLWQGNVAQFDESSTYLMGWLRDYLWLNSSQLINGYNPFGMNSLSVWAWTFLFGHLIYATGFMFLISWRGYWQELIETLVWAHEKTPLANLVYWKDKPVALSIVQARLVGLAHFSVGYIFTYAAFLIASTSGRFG

Target: PsaB fused with His20-tag after the third residue from the N-terminus (Chlamydomonas reinhardtii) (UniProt P09144)
Experiment: affinity purification with mass spectrometry; His20-PsaB PSI purified on TALON and sucrose density gradient; quantitative LC-MS/MS of the PSI fractions, iBAQ values normalized to PsaB

B1: PsaH (protein, UniProt P13352 31-130)
chain: KYGENSRYFDLQDMENTTGSWDMYGVDEKKRYPDNQAKFFTQATDIISRRESLRALVALSGIAAIVTYGLKGAKDADLPITKGPQTTGENGKGGSVRSRL
In the case of B1, the binding is reported as “binds weakly”.
